# Measured values: PMC11090908
# Amino acid sequences for entries named in this document (tags omitted). A change or cut given only in a name is not applied to a line headed by its entry.
# UniProt O43670: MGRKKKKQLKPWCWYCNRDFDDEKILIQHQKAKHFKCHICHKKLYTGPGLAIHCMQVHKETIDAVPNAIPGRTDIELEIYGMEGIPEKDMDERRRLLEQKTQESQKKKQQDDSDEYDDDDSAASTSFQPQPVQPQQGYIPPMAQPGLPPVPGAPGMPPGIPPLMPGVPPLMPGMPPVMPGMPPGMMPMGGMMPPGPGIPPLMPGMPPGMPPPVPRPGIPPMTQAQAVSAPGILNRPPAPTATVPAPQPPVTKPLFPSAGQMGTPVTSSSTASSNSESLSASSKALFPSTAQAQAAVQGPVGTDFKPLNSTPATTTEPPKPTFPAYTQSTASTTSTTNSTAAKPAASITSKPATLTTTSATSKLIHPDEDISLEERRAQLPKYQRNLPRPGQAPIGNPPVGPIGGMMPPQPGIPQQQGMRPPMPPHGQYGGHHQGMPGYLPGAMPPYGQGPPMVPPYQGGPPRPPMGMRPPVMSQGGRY
# Where a chain is given by its changes, count along the chain named. No constants are given. Whether binding was seen depends on the method and setting. In cells and extracts the contact can be indirect. Some binding calls cover weakened binding; strength is not graded here. Tags and fused reporters may be left off the sequences shown.
# Key:
# [1] = target: T1, GFP-Aurora-A (stably expressed in HeLa cells) (human) (UniProt O14965); experiment: co-IP; HeLa cells stably expressing GFP-Aurora-A, in G2 (16 h Ro-3306) or mitosis (1.5 h after release, with MG132); GFP-Trap agarose; Western blot
# T1 sequence: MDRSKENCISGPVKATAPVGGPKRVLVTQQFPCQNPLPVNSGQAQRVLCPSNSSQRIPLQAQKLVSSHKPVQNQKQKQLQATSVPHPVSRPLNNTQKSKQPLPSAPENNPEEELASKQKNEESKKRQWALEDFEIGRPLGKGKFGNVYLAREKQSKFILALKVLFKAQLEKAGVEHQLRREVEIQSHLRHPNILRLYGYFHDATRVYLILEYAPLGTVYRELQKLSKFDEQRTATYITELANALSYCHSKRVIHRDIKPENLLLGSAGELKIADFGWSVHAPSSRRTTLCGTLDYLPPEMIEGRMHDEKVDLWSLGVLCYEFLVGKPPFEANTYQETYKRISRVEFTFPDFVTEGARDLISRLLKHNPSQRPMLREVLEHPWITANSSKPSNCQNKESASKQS
# [2] = target: T2, flag-hAurora-A (wild type) (human) (UniProt O14965); experiment: co-IP; flag-tagged proteins co-expressed with GFP-BuGZ-N in HEK293T for 24 h; lysate on flag-agarose 2 h at 4°C; Western blot
# T2 sequence: T1 sequence
# [3] = target: T3, flag-hAurora-A-2A (R195A and R189A) (human) (UniProt O14965); experiment: as above
# T3 sequence: T1 sequence with R189A, R195A
# [4] = target: T4, flag-hAurora-A-3A (R195A, R189A and E269A) (human) (UniProt O14965); experiment: as above
# T4 sequence: T1 sequence with R189A, R195A, E269A
# [5] = target: T5, flag-hAurora-A-R195A (human) (UniProt O14965); experiment: as above
# T5 sequence: T1 sequence with R195A
binding [1],binding [2],binding [3],binding [4],binding [5],Substance
binds,,,,,"BuGZ (endogenous, HeLa) (from UniProt O43670 1-478)"
,binds,binds,binds,binds,GFP-BuGZ-N (from UniProt O43670 1-92) (domain or fragment)
